Patent US20150166671A1 (CHILDREN S MEDICAL CENTER, published 2015)
No constants are given. Whether binding was seen depends on the method and setting. In cells and extracts the contact can be indirect. Binding can be weak; no strength is given. Tags and fused reporters may be left off the sequences shown.

Target: Wnt5a (Homo sapiens (Human))
Assay: co-immunoprecipitation from CM with an anti-FLAG antibody, Western blotting

binding: binds
B1: TIKI2N-FLAG-6xHIS (enzyme, not shown: small tags and cut ends)
chain: RPQPPDGGQCRPPGSQRDLNSFLWTIRRDPPAYLFGTIHVPYTRVWDFIPDNSKAAFQASTRVYFELDLTDPYTISALASCQLLPHGENLQDVLPHELYWRLKRHLDYVKLMMPSWMTPAQRGKGLYADYLFNAIAGNWERKRPVWVMLMVNSLTERDVRFRGVPVLDLYLAQQAEKMKKTTGAVEQVEEQCHPLNNGLNFSQVLFALNQTLLQQESVRAGSLQASYTTEDLIKHYNCGDLSAVIFNHDTSQLPNFINTTLPPHEQVTAQEIDSYFRQELIYKRNERMGKRVMALLRENEDKICFFAFGAGHFLGNNTVIDILRQAGLEVDHTPAGQAIHSPAPQSPAPSPEGTSTSPAPVTPAAAVPEAPSVTPTAPPEDEDPALSPHLLLPDSLSQLEEFGRQRKWHKRQSTHQRPRQFNDLWVRIEDSTTASPPPLPLQPTHSSGTAKPPFQLSDQLQQQDPPG
